# PubChem BioAssay AID1259308 | NCATS | 2017
# Test: 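Knock-downs that increase output of a recombinant reporter protein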 (primary screen)
# Cells: human HEK293 embryonic kidney cells stably expressing firefly luciferase (HEK-CMV-Luc2-Hygro)
# Reagents: single siRNA against human genes, 0.8 pmol siRNA per well
# Timing: 72 h
# Measurement: 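Luciferase light (ONE-Glo) measured on one replicate plate set and viability (CellTiter-Glo) on the other, scaled to a negative control siRNA, with robust z-scores and luciferase per cell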
# Reading the numbers: total luciferase, z-score and total luciferase, % of control: higher = more reporter protein produced
# Rule for the call: 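An siRNA counts as active if its total luciferase robust z-score exceeds 3; genes with two or more such siRNAs out of three were retested with fresh siRNAs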
# Calls: active = raised luciferase; inactive = no rise
# The whole screen tested about 59,000 reagents; this is a random part of them. Over the whole deposit, about 1,510 (2.6%) got an active call. 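Calls use total luciferase alone and ignore viability, so some active siRNAs may act by altering cell number.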 The numbers tell different reagents against one gene apart. Further read-outs or replicates are left out here. No sequences are given here.
gene knocked down,reagent no.,"total luciferase, z-score","total luciferase, % of control",call
TAMM41,1,1.53,112,inactive
TAMM41,2,0.479,91.4,inactive
TAMM41,3,0.536,92.5,inactive
OAS3,1,2.31,128,inactive
OAS3,2,2.3,128,inactive
OAS3,3,-0.82,65.6,inactive
NCBP3,1,0.562,93.1,inactive
NCBP3,2,0.418,90.2,inactive
NCBP3,3,-0.48,72.3,inactive
EFNA3,1,-0.604,69.9,inactive
EFNA3,2,-0.193,78,inactive
EFNA3,3,0.973,101,inactive

Targets above whose target name starts with E or e:
gene knocked down,reagent no.,"total luciferase, z-score","total luciferase, % of control",call
EFNA3,1,-0.604,69.9,inactive
EFNA3,2,-0.193,78,inactive
EFNA3,3,0.973,101,inactive

Additional records follow:
gene knocked down,reagent no.,"total luciferase, z-score","total luciferase, % of control",call
FPR1,1,2.19,125,inactive
FPR1,2,1.52,112,inactive
FPR1,3,-0.111,79.7,inactive
ATP6V0A2,1,1.14,105,inactive
ATP6V0A2,2,0.496,91.8,inactive
ATP6V0A2,3,0.643,94.7,inactive
APOA4,1,3.92,160,active
APOA4,2,-0.0695,80.5,inactive
APOA4,3,-1.45,53,inactive
NLRP9,1,0.936,101,inactive
NLRP9,2,0.347,88.8,inactive
NLRP9,3,-0.345,75,inactive
